Where a sequence shows no end group, the ends are not given.
Test: general procedure: peptide synthesis; chlorotrityl chloride resin
Conditions: whole synthesis

## ACTSSQLRSC
  crude mass: 0.73 g
Scale of the general procedure 700 mg resin
  crude yield: 87.1%

Source: patent US10344061B2 (CAREGEN CO., LTD., priority 2016, dated 2019)
